Our source for the binding values is article PMC9597257.

Sequences of proteins named here, by UniProt entry; tags and fusion partners are left off.
UniProt Q95KV1: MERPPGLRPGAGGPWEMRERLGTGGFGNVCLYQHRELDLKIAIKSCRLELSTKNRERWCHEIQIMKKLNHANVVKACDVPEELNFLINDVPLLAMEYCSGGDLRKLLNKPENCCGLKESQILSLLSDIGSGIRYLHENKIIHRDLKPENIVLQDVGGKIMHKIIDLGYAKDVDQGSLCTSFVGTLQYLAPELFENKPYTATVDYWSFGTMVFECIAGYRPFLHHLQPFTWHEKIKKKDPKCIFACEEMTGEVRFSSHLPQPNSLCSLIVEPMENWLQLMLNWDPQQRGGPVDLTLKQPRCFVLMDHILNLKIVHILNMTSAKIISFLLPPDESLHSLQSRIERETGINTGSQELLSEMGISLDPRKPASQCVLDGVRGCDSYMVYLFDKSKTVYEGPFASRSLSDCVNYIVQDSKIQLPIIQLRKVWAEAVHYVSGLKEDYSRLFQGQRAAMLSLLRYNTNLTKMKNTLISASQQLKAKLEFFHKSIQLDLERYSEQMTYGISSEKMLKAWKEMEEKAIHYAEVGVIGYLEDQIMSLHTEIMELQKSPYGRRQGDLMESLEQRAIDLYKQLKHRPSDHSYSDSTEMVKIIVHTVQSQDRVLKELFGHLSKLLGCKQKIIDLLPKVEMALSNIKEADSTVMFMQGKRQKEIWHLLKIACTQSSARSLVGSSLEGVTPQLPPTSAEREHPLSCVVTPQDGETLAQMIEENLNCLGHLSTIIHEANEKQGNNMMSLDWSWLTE
UniProt A2VDU3: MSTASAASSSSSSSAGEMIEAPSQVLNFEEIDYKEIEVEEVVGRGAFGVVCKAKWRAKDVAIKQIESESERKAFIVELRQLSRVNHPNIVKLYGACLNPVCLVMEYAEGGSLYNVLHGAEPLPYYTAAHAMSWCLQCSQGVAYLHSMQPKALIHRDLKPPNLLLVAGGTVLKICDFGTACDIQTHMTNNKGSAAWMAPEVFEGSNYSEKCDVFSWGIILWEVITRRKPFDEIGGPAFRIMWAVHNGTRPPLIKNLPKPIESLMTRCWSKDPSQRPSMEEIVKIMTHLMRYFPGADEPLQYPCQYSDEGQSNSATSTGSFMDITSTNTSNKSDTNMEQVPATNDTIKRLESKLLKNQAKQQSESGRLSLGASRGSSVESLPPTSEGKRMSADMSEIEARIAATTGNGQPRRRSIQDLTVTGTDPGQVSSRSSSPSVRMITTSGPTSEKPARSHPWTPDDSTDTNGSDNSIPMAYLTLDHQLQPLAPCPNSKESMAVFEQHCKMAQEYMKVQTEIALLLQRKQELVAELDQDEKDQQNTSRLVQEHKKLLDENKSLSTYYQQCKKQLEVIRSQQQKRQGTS
UniProt Q4JF28: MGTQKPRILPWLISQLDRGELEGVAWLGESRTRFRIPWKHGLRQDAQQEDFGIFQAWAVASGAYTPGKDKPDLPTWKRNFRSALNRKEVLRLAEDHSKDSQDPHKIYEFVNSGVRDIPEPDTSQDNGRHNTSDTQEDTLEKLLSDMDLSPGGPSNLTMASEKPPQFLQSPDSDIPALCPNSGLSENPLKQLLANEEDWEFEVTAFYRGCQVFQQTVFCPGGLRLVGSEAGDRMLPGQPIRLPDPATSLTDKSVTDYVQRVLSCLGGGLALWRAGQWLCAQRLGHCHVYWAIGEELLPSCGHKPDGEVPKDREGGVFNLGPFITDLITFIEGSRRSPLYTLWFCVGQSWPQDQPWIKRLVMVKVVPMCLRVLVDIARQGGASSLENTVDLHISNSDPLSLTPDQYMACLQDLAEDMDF

No constants are given. Whether binding was seen depends on the method and setting. In cells and extracts the contact can be indirect. Some entries that bind do so weakly or less than the wild type.

Assay [1] addresses T1, stimulator of interferon genes (STING) (Bos taurus (endogenous in bovine bladder tissue)) (UniProt Q2KI99).
T1 sequence: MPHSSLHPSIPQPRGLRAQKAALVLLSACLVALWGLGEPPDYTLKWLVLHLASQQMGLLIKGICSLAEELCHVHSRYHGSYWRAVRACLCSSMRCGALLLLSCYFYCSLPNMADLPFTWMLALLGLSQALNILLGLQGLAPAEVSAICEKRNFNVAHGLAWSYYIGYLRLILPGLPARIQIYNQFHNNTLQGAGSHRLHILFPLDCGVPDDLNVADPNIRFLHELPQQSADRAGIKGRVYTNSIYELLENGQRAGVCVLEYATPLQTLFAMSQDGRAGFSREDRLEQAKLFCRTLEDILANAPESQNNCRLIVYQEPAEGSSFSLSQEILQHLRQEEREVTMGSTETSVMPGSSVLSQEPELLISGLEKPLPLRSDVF
Briefly: co-IP; 1 mg total protein extract of bovine bladder samples (RIPA buffer), anti-STING antibody, 1 h at 4°C, Protein A/G-Plus Agarose overnight at 4°C, four washes in lysis buffer, western blot. For orientation: In western blotting, separated proteins are transferred to a membrane and probed.

Assay [2] deals with interferon-inducible protein 16 (IFI16) (bovine (endogenous in bovine bladder tissue)). Description: co-IP; 1 mg total protein extract of BPV-infected bovine bladder samples (RIPA buffer), anti-IFI16 antibody, Protein A/G-Plus Agarose, western blot.
For assay [3] the target is unchanged. Description: co-IP; 1 mg total protein extract of BPV-negative (non-infected, healthy) bovine bladder samples (RIPA buffer), anti-IFI16 antibody, Protein A/G-Plus Agarose, western blot.

Take IKKα (from UniProt Q95KV1 1-740): the binding result in assay [1] is listed as “binds”.

As to TAK1 (from UniProt A2VDU3 1-579), the binding result in assay [1] is on record as “binds”.

As to “interferon regulatory factor 3 (IRF3) (from UniProt Q4JF28 1-417)”, in assay [1], the binding result is reported as “binds”.

Turning to “phosphorylated interferon regulatory factor 3 (pIRF3) (from UniProt Q4JF28 1-417)”, the binding result in assay [1] was “binds”.

B1: stimulator of interferon genes (STING) (protein, UniProt Q2KI99 1-378)
chain: MPHSSLHPSIPQPRGLRAQKAALVLLSACLVALWGLGEPPDYTLKWLVLHLASQQMGLLIKGICSLAEELCHVHSRYHGSYWRAVRACLCSSMRCGALLLLSCYFYCSLPNMADLPFTWMLALLGLSQALNILLGLQGLAPAEVSAICEKRNFNVAHGLAWSYYIGYLRLILPGLPARIQIYNQFHNNTLQGAGSHRLHILFPLDCGVPDDLNVADPNIRFLHELPQQSADRAGIKGRVYTNSIYELLENGQRAGVCVLEYATPLQTLFAMSQDGRAGFSREDRLEQAKLFCRTLEDILANAPESQNNCRLIVYQEPAEGSSFSLSQEILQHLRQEEREVTMGSTETSVMPGSSVLSQEPELLISGLEKPLPLRSDVF
For the molecule B1, the binding entry in assay [2] was “binds weakly”; in assay [3], “binds”.
